# Assay results reported in the supplement of paper PMC8728848.
# The other results are listed elsewhere or left out.
# Columns and labels:
# Experiment in all cases: glycan array binding signal (z-score within array); higher = stronger binding
# Conditions in all cases: glycan notation: IUPAC condensed, linker removed
# [1] = target: GlcNAc(b1-3)Gal(b1-4)GlcNAc(b1-3)GalNAc
# Summary of the method: (§1)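 The binding signal is a Z-score computed within each array and averaged over linkers. Arrays of the same protein sequence at different concentrations or buffers were also averaged together. Data originate from 3228 arrays in the Consortium for Functional Glycomics database, kept only where the protein sequence was available.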
# [2] = target: GlcNAc(b1-3)Gal(b1-4)GlcNAc(b1-3)[GlcNAc(b1-3)Gal(b1-4)GlcNAc(b1-3)]GalNAc
# Summary of the method: as §1
# [3] = target: GlcNAc(b1-3)Gal(b1-4)GlcNAc(b1-6)[Gal(b1-3)]GalNAc
# Summary of the method: as §1
# [4] = target: GlcNAc(b1-3)Gal(b1-4)GlcNAc(b1-6)[GlcNAc(b1-3)Gal(b1-3)]GalNAc
# Summary of the method: as §1
# [5] = target: GlcNAc(b1-3)Gal(b1-4)GlcNAc(b1-6)[GlcNAc(b1-3)]Gal(b1-4)GlcNAc
# Summary of the method: as §1
# GlcNAc(b1-3)GalNAc = target: GlcNAc(b1-3)GalNAc
# Summary of the method: as §1
# GlcNAc(b1-3)Man = target: GlcNAc(b1-3)Man
# Summary of the method: as §1
# [6] = target: GlcNAc(b1-3)[GlcNAc(b1-4)][GlcNAc(b1-6)]GlcNAc
# Summary of the method: as §1
# [7] = target: GlcNAc(b1-3)[GlcNAc(b1-6)]Gal(b1-4)GlcNAc
# Summary of the method: as §1
# [8] = target: GlcNAc(b1-3)[GlcNAc(b1-6)]GalNAc
# Summary of the method: as §1
# [9] = target: GlcNAc(b1-4)Gal(b1-4)GlcNAc
# Summary of the method: as §1
# GlcNAc(b1-4)GlcNAc = target: GlcNAc(b1-4)GlcNAc
# Summary of the method: as §1
# [10] = target: GlcNAc(b1-4)GlcNAc(b1-4)GlcNAc
# Summary of the method: as §1
# [11] = target: GlcNAc(b1-4)GlcNAc(b1-4)GlcNAc(b1-4)GlcNAc(b1-4)GlcNAc
# Summary of the method: as §1
# [12] = target: GlcNAc(b1-4)GlcNAc(b1-4)GlcNAc(b1-4)GlcNAc(b1-4)GlcNAc(b1-4)GlcNAc
# Summary of the method: as §1
# [13] = target: GlcNAc(b1-4)[GlcNAc(b1-6)]GalNAc
# Summary of the method: as §1
# [14] = target: GlcNAc(b1-6)Gal(b1-4)GlcNAc
# Summary of the method: as §1
# GlcNAc(b1-6)GalNAc = target: GlcNAc(b1-6)GalNAc
# Summary of the method: as §1
# [15] = target: GlcNAc6S(b1-3)Gal(b1-4)GlcNAc
# Summary of the method: as §1
# Kdn(a2-3)Gal(b1-3)GalNAc = target: Kdn(a2-3)Gal(b1-3)GalNAc
# Summary of the method: as §1
# Kdn(a2-3)Gal(b1-3)GlcNAc = target: Kdn(a2-3)Gal(b1-3)GlcNAc
# Summary of the method: as §1
# Kdn(a2-3)Gal(b1-4)Glc = target: Kdn(a2-3)Gal(b1-4)Glc
# Summary of the method: as §1
# Kdn(a2-3)Gal(b1-4)GlcNAc = target: Kdn(a2-3)Gal(b1-4)GlcNAc
# Summary of the method: as §1
# [16] = target: Kdn(a2-3)Gal(b1-4)[Fuc(a1-3)]GlcNAc
# Summary of the method: as §1
# Kdn(a2-6)Gal(b1-4)GlcNAc = target: Kdn(a2-6)Gal(b1-4)GlcNAc
# Summary of the method: as §1
# [17] = target: Man(a1-2)Man(a1-2)Man(a1-3)Man
# Summary of the method: as §1
# [18] = target: Man(a1-2)Man(a1-2)Man(a1-6)[Man(a1-3)]Man
# Summary of the method: as §1
# Man(a1-2)Man(a1-3)Man = target: Man(a1-2)Man(a1-3)Man
# Summary of the method: as §1
# [19] = target: Man(a1-2)Man(a1-3)[Man(a1-2)Man(a1-6)]Man
# Summary of the method: as §1
# [20] = target: Man(a1-2)Man(a1-3)[Man(a1-2)Man(a1-6)]Man(a1-6)[Man(a1-2)Man(a1-2)Man(a1-3)]Man
# Summary of the method: as §1
# [21] = target: Man(a1-2)Man(a1-3)[Man(a1-2)Man(a1-6)]Man(a1-6)[Man(a1-2)Man(a1-2)Man(a1-3)]Man(b1-4)GlcNAc(b1-4)GlcNAc
# Summary of the method: as §1
# [22] = target: Man(a1-2)Man(a1-3)[Man(a1-6)]Man(a1-6)[Man(a1-2)Man(a1-3)]Man(b1-4)GlcNAc(b1-4)GlcNAc
# Summary of the method: as §1
# [23] = target: Man(a1-2)Man(a1-6)[Man(a1-3)]Man(a1-6)[Man(a1-2)Man(a1-2)Man(a1-3)]Man
# Summary of the method: as §1
# [24] = target: Man(a1-2)Man(a1-6)[Man(a1-3)]Man(a1-6)[Man(a1-2)Man(a1-2)Man(a1-3)]Man(b1-4)GlcNAc(b1-4)GlcNAc
# Summary of the method: as §1
# Man(a1-3)[Man(a1-6)]Man = target: Man(a1-3)[Man(a1-6)]Man
# Summary of the method: as §1
# [25] = target: Man(a1-3)[Man(a1-6)]Man(a1-6)[Man(a1-2)Man(a1-3)]Man(b1-4)GlcNAc(b1-4)GlcNAc
# Summary of the method: as §1
# [26] = target: Man(a1-3)[Man(a1-6)]Man(a1-6)[Man(a1-3)]Man
# Summary of the method: as §1
# [27] = target: Man(a1-3)[Man(a1-6)]Man(a1-6)[Man(a1-3)]Man(b1-4)GlcNAc(b1-4)GlcNAc
# Summary of the method: as §1
# [28] = target: Man(a1-3)[Man(a1-6)]Man(b1-4)GlcNAc(b1-4)GlcNAc
# Summary of the method: as §1
# [29] = target: Man(a1-3)[Man(a1-6)]Man(b1-4)GlcNAc(b1-4)[Fuc(a1-6)]GlcNAc
# Summary of the method: as §1
# Man(a1-6)Man = target: Man(a1-6)Man
# Summary of the method: as §1
# Man(b1-4)GlcNAc = target: Man(b1-4)GlcNAc
# Summary of the method: as §1
# MurNAc(b1-4)GlcNAc = target: MurNAc(b1-4)GlcNAc
# Summary of the method: as §1
# Neu5Ac(a2-3)Gal = target: Neu5Ac(a2-3)Gal
# Summary of the method: as §1
# [30] = target: Neu5Ac(a2-3)Gal(b1-3)GalNAc
# Summary of the method: as §1
# [31] = target: Neu5Ac(a2-3)Gal(b1-3)GalNAc(b1-3)Gal(a1-4)Gal(b1-4)Glc
# Summary of the method: as §1
# [32] = target: Neu5Ac(a2-3)Gal(b1-3)GalNAc(b1-4)[Neu5Ac(a2-3)]Gal(b1-4)Glc
# Summary of the method: as §1
# [33] = target: Neu5Ac(a2-3)Gal(b1-3)GalNAc(b1-4)[Neu5Ac(a2-8)Neu5Ac(a2-3)]Gal(b1-4)Glc
# Summary of the method: as §1
# [34] = target: Neu5Ac(a2-3)Gal(b1-3)GalNAc6S
# Summary of the method: as §1
# [35] = target: Neu5Ac(a2-3)Gal(b1-3)GlcNAc
# Summary of the method: as §1
# [36] = target: Neu5Ac(a2-3)Gal(b1-3)GlcNAc(b1-2)Man
# Summary of the method: as §1
# [37] = target: Neu5Ac(a2-3)Gal(b1-3)GlcNAc(b1-2)Man(a1-3)[GlcNAc(b1-4)][Neu5Ac(a2-3)Gal(b1-3)GlcNAc(b1-2)Man(a1-6)]Man(b1-4)GlcNAc(b1-4)GlcNAc
# Summary of the method: as §1
# [38] = target: Neu5Ac(a2-3)Gal(b1-3)GlcNAc(b1-2)Man(a1-3)[Neu5Ac(a2-3)Gal(b1-3)GlcNAc(b1-2)Man(a1-6)]Man(b1-4)GlcNAc(b1-4)GlcNAc
# Summary of the method: as §1
# [39] = target: Neu5Ac(a2-3)Gal(b1-3)GlcNAc(b1-3)Gal(b1-3)GlcNAc
# Summary of the method: as §1
# [40] = target: Neu5Ac(a2-3)Gal(b1-3)GlcNAc(b1-3)Gal(b1-4)GlcNAc
# Summary of the method: as §1
# [41] = target: Neu5Ac(a2-3)Gal(b1-3)GlcNAc(b1-3)GalNAc
# Summary of the method: as §1
# [42] = target: Neu5Ac(a2-3)Gal(b1-3)GlcNAc(b1-4)Gal(b1-4)Glc
# Summary of the method: as §1
# [43] = target: Neu5Ac(a2-3)Gal(b1-3)GlcNAc(b1-6)GalNAc
# Summary of the method: as §1
# [44] = target: Neu5Ac(a2-3)Gal(b1-3)GlcNAc6S
# Summary of the method: as §1
# [45] = target: Neu5Ac(a2-3)Gal(b1-3)[Fuc(a1-4)]GlcNAc
# Summary of the method: as §1
binder,measurement,setting,value
Blon0732mut (Bifidobacterium longum) (protein) MPTSEHKADDATRHLTLIPAPVTLEYTHGTALIGPLVTIEDADQSWETLPIEQLSDELRHRYGVTVLRRRTHGTVISLGLDSRLAHDEYTLDVSESEGIRVRGGGESGLRYGLQTLRQIIGQTSRAIPCLHIQDKPAFAVRAYSLDVTRGRVPTMEFLTWFVDQLALYKYNQFQLYVEHAFAFVELSEAWRGTDPLTAADITYLDEYCARRGIELVPSLATFGHMYMNLRTREHRGLGEFPEDADRPFSFIERMEHHTLNAADPKAHDFASRLIEEYAPLFRSKSFNIGGNETFDLGRGRSAQDAPEAGRDELYAGFVRDLCETLARHGRQPMLWADIALESPRTMDLLPGDITMLNWMYEPQIDESKIQTIATQGRRQFVCPAVRAWSRFFPDYAGAWLNTYHMALAGTKYDAEGMVVTDWGDYGHVNDPRLSVPGLCYGAQNAWNPIEIDAHEMNRRISALVYGDESGRIMDCLARIDSDGVSFPWDLAVQVLELEYGSGTGALNMDVAACMERSSGGKLTLDRTLGCDDARRRMLQWNRERIERRRDCDQVLRDCGDAFAGLDKGGLTAEFLSVMLDGQRLFNELGEELLALADGKDVGSGANRLAADLELWFERYRAQWLSVGRHAELARIAHVVWSLADILRRGAL,glycan array binding signal (z-score),[1],-0.579
same,glycan array binding signal (z-score),[2],-0.125
same,glycan array binding signal (z-score),[3],-0.135
same,glycan array binding signal (z-score),[4],-0.19
same,glycan array binding signal (z-score),[5],-0.46
same,glycan array binding signal (z-score),GlcNAc(b1-3)GalNAc,-0.199
same,glycan array binding signal (z-score),GlcNAc(b1-3)Man,-0.762
same,glycan array binding signal (z-score),[6],5.26
same,glycan array binding signal (z-score),[7],-0.552
same,glycan array binding signal (z-score),[8],-0.405
same,glycan array binding signal (z-score),[9],0.339
same,glycan array binding signal (z-score),GlcNAc(b1-4)GlcNAc,-0.319
same,glycan array binding signal (z-score),[10],-0.223
same,glycan array binding signal (z-score),[11],-0.692
same,glycan array binding signal (z-score),[12],-0.019
same,glycan array binding signal (z-score),[13],-0.758
same,glycan array binding signal (z-score),[14],0.074
same,glycan array binding signal (z-score),GlcNAc(b1-6)GalNAc,0.164
same,glycan array binding signal (z-score),[15],0.664
same,glycan array binding signal (z-score),Kdn(a2-3)Gal(b1-3)GalNAc,-0.565
same,glycan array binding signal (z-score),Kdn(a2-3)Gal(b1-3)GlcNAc,-0.602
same,glycan array binding signal (z-score),Kdn(a2-3)Gal(b1-4)Glc,-0.647
same,glycan array binding signal (z-score),Kdn(a2-3)Gal(b1-4)GlcNAc,0.494
same,glycan array binding signal (z-score),[16],0.017
same,glycan array binding signal (z-score),Kdn(a2-6)Gal(b1-4)GlcNAc,-0.04
same,glycan array binding signal (z-score),[17],0.059
same,glycan array binding signal (z-score),[18],0.626
same,glycan array binding signal (z-score),Man(a1-2)Man(a1-3)Man,-0.346
same,glycan array binding signal (z-score),[19],-0.328
same,glycan array binding signal (z-score),[20],-0.024
same,glycan array binding signal (z-score),[21],-0.629
same,glycan array binding signal (z-score),[22],-0.893
same,glycan array binding signal (z-score),[23],-0.255
same,glycan array binding signal (z-score),[24],0.637
same,glycan array binding signal (z-score),Man(a1-3)[Man(a1-6)]Man,-1.25
same,glycan array binding signal (z-score),[25],-1.5
same,glycan array binding signal (z-score),[26],-0.066
same,glycan array binding signal (z-score),[27],-0.6
same,glycan array binding signal (z-score),[28],-0.261
same,glycan array binding signal (z-score),[29],-1.28
same,glycan array binding signal (z-score),Man(a1-6)Man,-0.78
same,glycan array binding signal (z-score),Man(b1-4)GlcNAc,-0.953
same,glycan array binding signal (z-score),MurNAc(b1-4)GlcNAc,-0.441
same,glycan array binding signal (z-score),Neu5Ac(a2-3)Gal,-0.286
same,glycan array binding signal (z-score),[30],-0.561
same,glycan array binding signal (z-score),[31],-0.229
same,glycan array binding signal (z-score),[32],-1.22
same,glycan array binding signal (z-score),[33],3.81
same,glycan array binding signal (z-score),[34],-0.546
same,glycan array binding signal (z-score),[35],-0.428
same,glycan array binding signal (z-score),[36],0.001
same,glycan array binding signal (z-score),[37],-0.712
same,glycan array binding signal (z-score),[38],-0.754
same,glycan array binding signal (z-score),[39],-0.804
same,glycan array binding signal (z-score),[40],-0.383
same,glycan array binding signal (z-score),[41],-0.781
same,glycan array binding signal (z-score),[42],0.176
same,glycan array binding signal (z-score),[43],-0.704
same,glycan array binding signal (z-score),[44],-0.542
same,glycan array binding signal (z-score),[45],0.93

# Taken from above for reference:
binder,measurement,setting,value
Blon0732mut (Bifidobacterium longum) (protein) MPTSEHKADDATRHLTLIPAPVTLEYTHGTALIGPLVTIEDADQSWETLPIEQLSDELRHRYGVTVLRRRTHGTVISLGLDSRLAHDEYTLDVSESEGIRVRGGGESGLRYGLQTLRQIIGQTSRAIPCLHIQDKPAFAVRAYSLDVTRGRVPTMEFLTWFVDQLALYKYNQFQLYVEHAFAFVELSEAWRGTDPLTAADITYLDEYCARRGIELVPSLATFGHMYMNLRTREHRGLGEFPEDADRPFSFIERMEHHTLNAADPKAHDFASRLIEEYAPLFRSKSFNIGGNETFDLGRGRSAQDAPEAGRDELYAGFVRDLCETLARHGRQPMLWADIALESPRTMDLLPGDITMLNWMYEPQIDESKIQTIATQGRRQFVCPAVRAWSRFFPDYAGAWLNTYHMALAGTKYDAEGMVVTDWGDYGHVNDPRLSVPGLCYGAQNAWNPIEIDAHEMNRRISALVYGDESGRIMDCLARIDSDGVSFPWDLAVQVLELEYGSGTGALNMDVAACMERSSGGKLTLDRTLGCDDARRRMLQWNRERIERRRDCDQVLRDCGDAFAGLDKGGLTAEFLSVMLDGQRLFNELGEELLALADGKDVGSGANRLAADLELWFERYRAQWLSVGRHAELARIAHVVWSLADILRRGAL,glycan array binding signal (z-score),Neu5Ac(a2-3)Gal,-0.286
same,glycan array binding signal (z-score),[30],-0.561
same,glycan array binding signal (z-score),[31],-0.229
same,glycan array binding signal (z-score),[32],-1.22
same,glycan array binding signal (z-score),[33],3.81
